Screen size: about 330,000 compounds; about 7,700 (2.3%) were called active. The inconclusive results got no clear call from the source; some entries with a clear call stand among them for comparison. The call rests on the fitted dose curve; in most records, active means well fitted inhibition curve with a large enough effect; inconclusive means small, poorly fitted or top-dose-only effect, or effect the other way; inactive means flat fitted curve, though single readings scatter. Potencies of inconclusive entries are doubtful fits and often do not repeat.
assay: qHTS screen for small molecules that inhibit ELG1-dependent DNA repair in human embryonic kidney (HEK293T) cells expressing luciferase-tagged ELG1; details: HEK293T ELG1-luciferase reporter, luminescence, 16 h, DNA damage induced by 5-fluorouridine; activity change, negative = inhibition: at 46.1 µM (top of the series); further: nearly all actives have a fitted effect of over 55% in size
Method in brief: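 Overnight (16 hr) co-exposure of 2,000 cells/well to 5-fluorouridine and compound at 37 °C preceded detection. Luciferase was quantified via ONE-Glo luminescence; loss of signal denotes inhibition.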
On the % scale 0 is the no-effect control and ±100 the full control effect; potency means the concentration at half of the fitted maximal effect.

Question: For `Cn1nccc1C(=O)N/N=C/c1ccccc1[N+](=O)[O-]`, which Potency is on record?
Answer: The Potency was inconclusive: 14.6 µM [activator, partial curve].

Question: Which Potency does the source give for `COC(=O)c1ccc(COc2ncnc3sccc23)cc1` here?
Answer: The Potency was inconclusive: 16.4 µM [activator, single point].

Question: For `Cc1[nH]c2ccc(F)cc2c(=O)c1SC(F)(F)C(F)C(F)(F)F` (stereo not drawn), which Potency is on record?
Answer: The Potency was inconclusive: 20.6 µM [inhibitor, partial curve, poor fit].

Question: For `CCOC(=O)C1CCN(C(c2ccc(OC)c(OC)c2)c2sc3nc(C)nn3c2O)CC1` (stereo not drawn), which Potency is on record?
Answer: The Potency was inconclusive: 23.1 µM [activator, partial curve, poor fit].

Question: For `C=CC[C@H](CC(=O)OC(C)(C)C)C(=O)OC[C@H]1CCCN1C(=O)[C@@H](CC=C)CC(=O)N(CCO)Cc1ccccc1`, which Potency is on record?
Answer: The Potency was inconclusive: 29.1 µM [inhibitor, single point].

Question: With `COCCN(C(=O)COC(=O)c1ccccc1Nc1ccccc1)c1c(N)n(Cc2ccccc2)c(=O)[nH]c1=O` as the molecule, how does the Potency read?
Answer: Its Potency is inconclusive: 4.61 µM [inhibitor, single point].

Question: With `CCN1C(=O)[C@H]2[C@@H](c3ccc(-c4ccc(Cl)c(Cl)c4)cc3)N[C@@](Cc3ccccc3)(C(=O)OC)[C@H]2C1=O` as the molecule, how does the “activity change, negative = inhibition” value read?
Answer: The value was inactive: -1.64%.

Question: For `Cc1ccc(Cc2c(C)nc3nc(SCC(=O)NCc4ccco4)nn3c2C)cc1`, which “activity change, negative = inhibition” value is on record?
Answer: The value was inactive: 13.7%.

Question: Which Potency does the source give for `CCC(NC(=O)c1[nH]c(C)c(C(C)=O)c1C)c1ccc(Br)cc1` (stereo not drawn) here?
Answer: The Potency was inconclusive: 23.1 µM [inhibitor, single point].

Question: For `COc1ccc(NC(=O)N2CCN(c3cccc(C(F)(F)F)c3)CC2)cc1`, which “activity change, negative = inhibition” value is on record?
Answer: Its value is inactive: -5.38%.

Question: Which “activity change, negative = inhibition” value does the source give for `Cc1cc(C)cc(NC(=O)C(=O)NCCc2c[nH]c3ccccc23)c1` here?
Answer: The value was inactive: -8.78%.

Question: With `Cn1c(SCC(=O)N/N=C/c2ccc([N+](=O)[O-])s2)nnc1-c1ccccc1` as the molecule, how does the Potency read?
Answer: Its Potency is inconclusive: 18.4 µM [inhibitor, partial curve, poor fit].

Question: With `CSc1ncccc1C(=O)N1CCCC(Nc2ccc(C)c(C)c2)C1` (stereo not drawn) as the molecule, how does the “activity change, negative = inhibition” value read?
Answer: The value was inactive: -1.19%.

Question: With `O=C(Cc1ccc(Cl)cc1)c1ccc(O)cc1` as the molecule, how does the Potency read?
Answer: The Potency was inconclusive: 16.4 µM [activator, partial curve].

Question: Which Potency does the source give for `COc1ccc(OC)c(CCNC(=O)C(=O)Nc2ccc3nc4n(c(=O)c3c2)CCCCC4)c1` here?
Answer: The Potency was inconclusive: 29.1 µM [inhibitor, single point].

Question: For `COc1ccc(NC(=S)NC(NC(=O)c2ccccc2Cl)C(Cl)(Cl)Cl)c([N+](=O)[O-])c1` (stereo not drawn), which Potency is on record?
Answer: The Potency was inconclusive: 23.1 µM [inhibitor, single point].

Question: For `CCC1C/C(=C\c2cc(OC)c(OC)cc2OC)C(=O)/C(=C/c2cc(OC)c(OC)cc2OC)C1` (stereo not drawn), which Potency is on record?
Answer: The Potency was active: 6.51 µM.

Question: Which Potency does the source give for `Cc1c(-c2cc[n+]([O-])cc2)oc2ccc(Br)cc2c1=O` here?
Answer: Its Potency is inconclusive: 20.6 µM [activator, partial curve].

Question: With `O=C(COC(=O)c1cccs1)NC1CCCC1` as the molecule, how does the “activity change, negative = inhibition” value read?
Answer: Its value is inactive: -1.83%.

Question: Which Potency does the source give for `CCC(OCC(O)CN1CCN(CCN2C(=O)c3cccc4cccc(c34)C2=O)CC1)c1ccccc1` (stereo not drawn) here?
Answer: The Potency was active: 20.6 µM.

Question: Which Potency does the source give for `Nc1c(C(=O)Nc2ccccc2)sc2ncc([N+](=O)[O-])cc12` here?
Answer: The Potency was inconclusive: 6.51 µM [activator, partial curve, poor fit].

Question: For `COCCOC(=O)c1c(C)nc(SCC(=O)Nc2ccc(C)cc2)c(C#N)c1-c1ccco1`, which Potency is on record?
Answer: Its Potency is inconclusive: 29.1 µM [inhibitor, single point].

Question: For `CCCC(=O)Nc1cnc(NC(=O)c2cccc(F)c2)cc1C`, which Potency is on record?
Answer: The Potency was inconclusive: 4.61 µM [activator, partial curve].

Question: For `CCOc1cc(C(C#N)N2CCCCC2)ccc1OC` (stereo not drawn), which Potency is on record?
Answer: Its Potency is inconclusive: 16.4 µM [activator, single point].

Question: For `CN(C)C=NC(=O)c1cc(C(=O)c2ccc(Cl)cc2)c[nH]1`, which Potency is on record?
Answer: The Potency was inconclusive: 20.6 µM [inhibitor, single point].

Question: With `Cc1ccc(-c2nc(Nc3cccc(O)c3)c3ccccc3n2)cc1` as the molecule, how does the Potency read?
Answer: Its Potency is active: 20.6 µM.

Question: With `CN(C1CCCCC1)S(=O)(=O)c1ccc(NC(=O)C2CCCCC2)cc1` as the molecule, how does the Potency read?
Answer: The Potency was inconclusive: 29.1 µM [inhibitor, single point].

Question: Which “activity change, negative = inhibition” value does the source give for `CCc1cccc(CC)c1N(COC)C(=O)Cn1nnc2ccccc21` here?
Answer: The value was inactive: -13.1%.

Question: For `CN(C)S(=O)(=O)c1cccc(NC(=O)COC(=O)C2(c3ccccc3F)CCCC2)c1`, which Potency is on record?
Answer: The Potency was inconclusive: 16.4 µM [inhibitor, partial curve].

Question: With `COCCNC(=S)N/N=C/c1ccc([N+](=O)[O-])cc1` as the molecule, how does the “activity change, negative = inhibition” value read?
Answer: The value was inactive: -12.2%.

Question: Which “activity change, negative = inhibition” value does the source give for `COc1cc(CNC2CCCC2)cc(Cl)c1OCc1ccccc1Cl` here?
Answer: The value was inactive: 17.4%.

Question: Which Potency does the source give for `CCOC(=O)N1CCC(N2C(=O)c3ccccc3C2Nc2ccc3c(C)cc(=O)oc3c2)CC1` (stereo not drawn) here?
Answer: The Potency was inconclusive: 32.6 µM [inhibitor, partial curve, poor fit].

Question: For `CCN1c2ccccc2N(C)C1(C)c1ccccc1` (stereo not drawn), which Potency is on record?
Answer: The Potency was inconclusive: 18.4 µM [inhibitor, partial curve].

Question: With `COc1ccc(OC)c(CCNC(=O)CCn2ccc3cc(S(=O)(=O)N4CCCC4)ccc32)c1` as the molecule, how does the Potency read?
Answer: Its Potency is inconclusive: 32.6 µM [inhibitor, single point].

Question: With `CCOC(=O)C1(CCCc2ccccc2)CCN(C(=O)C2CCCN(C(N)=O)C2)CC1` (stereo not drawn) as the molecule, how does the “activity change, negative = inhibition” value read?
Answer: The value was inactive: -19.1%.

Question: With `CCN(CC)c1ccc(/C=N/NC(=O)c2c(-c3ccccc3)noc2C)cc1` as the molecule, how does the Potency read?
Answer: The Potency was inconclusive: 25.9 µM [inhibitor, single point].

Question: Which “activity change, negative = inhibition” value does the source give for `CCn1nc(C)c(CNC(=O)CCc2nnc(-c3ccc(C(C)=O)s3)o2)c1C` here?
Answer: Its value is inactive: -10.8%.

Question: For `CN(C)c1ccc(N/C(=N\S(=O)(=O)c2cccs2)c2ccccc2)cc1`, which “activity change, negative = inhibition” value is on record?
Answer: The value was inactive: 4.37%.

Question: For `O=C(N/N=C/c1cccc(OC(=O)c2ccccc2Cl)c1)c1cccnc1`, which Potency is on record?
Answer: Its Potency is inconclusive: 16.4 µM [activator, partial curve, poor fit].

Question: For `C=CCN(Cc1nc(-c2ccc(OC)cc2)no1)C(=O)c1ccc2c(c1)OCO2`, which “activity change, negative = inhibition” value is on record?
Answer: Its value is inactive: -8.8%.

Question: With `O=C(CSc1nnc(Nc2ccccc2)s1)NCc1ccco1` as the molecule, how does the Potency read?
Answer: The Potency was inconclusive: 16.4 µM [inhibitor, partial curve, poor fit].

Question: Which Potency does the source give for `COc1ccccc1CCc1nnc(CCC(=O)N(C)Cc2cccc3ncccc23)o1` here?
Answer: The Potency was inconclusive: 20.6 µM [inhibitor, single point].

Question: Which “activity change, negative = inhibition” value does the source give for `Cc1cc2[nH]c(=O)c(=O)[nH]c2cc1S(=O)(=O)N1CCC(C)CC1` here?
Answer: Its value is inactive: 5.25%.

— PubChem BioAssay AID504467 (National Center for Advancing Translational Sciences (NCATS), 2011)
